For at least one compound, name, drawing or mass did not settle the structure.
How the values were obtained:
human Axioloids [1] = test: scRNA-seq analysis of Axioloids (clusters, marker genes, differentially expressed genes); type: cell-based
Method: Axioloids were collected into wells of a 96-well plate and washed three times by transferring to another well filled with 0.1% BSA (SIGMA) in HBSS(-). Axioloids of the desired stage and number were then transferred to another well filled with 100 μl of enzyme P solution of the Neural Tissue Dissociation Kit (P) (Miltenyi Biotec) and incubated at 37° C. for 10 minutes. After adding 100 μl of 0.1% BSA in HBSS(-) Axioloids were dissociated by pipetting with an uncut P200 tip 20 times. The dissociated cells were filtered through Flowmi Cell Strainers with […] porosity (Merck) into a BSA-coated 2 ml tube (Eppendorf). Cells were washed twice in 1% BSA in HBSS(-) with centrifugation steps at 400×g for 6 minutes at room temperature. Cells were then resuspended in 1% BSA in HBSS(-) using a BSA-coated uncut-P200 tip and the concentration of the cell suspension was determined with hemocytometer. The cell suspension was subjected to library preparation using Chromium Next GEM Single Cell 3' Kit v3.1 (10× Genomics), aiming for a target cell recovery of 5000-10000. Library preparation was preformed following the instructions provided by the manufacturer 10X Genomics (CG000315 Rev B). The libraries were sequenced with NovaSeq 6000 Sequencing System (Illumina) using NovaSeq 6000 SP Reagent Kit v1.5 (100 Cycles) (Illumina, #20028401) and NovaSeq 6000 S1 Reagent Kit v1.5 (100 Cycles) (Illumina, #20028319) with the paired-end mode as described in the instructions by 10X Genomics (CG000315 Rev B). scRNA-seq data were first mapped to the human reference genome (hg38) to make matrices of UMI count for each gene and each cell using Cell Ranger (10X Genomics, version 6.0.1). Putative doublet clusters were removed using Scrublet (version 0.2.3) with the expected_doublet_rate set as 0.06^64. Then, the count data were imported into the Suerat package (version 4.0.3)^65 for the downstream analysis. Cells with nfeature>1.500, nCount between 2,500 and 50,000, and proportions of mitochondrial gene counts between 2% and 12% were only considered for further analyses. The raw counts were normalized using the log-normalization method. The cell cycle scores and cell cycle phases were then determined as described before^66. Count matrices of different samples were first merged to be simultaneously projected on a UMAP plot and normalized variations due to differences of total UMI counts as well as the cell cycle phases with the SCTransform function employing the vars.to.regress option^67. Principal component analysis (PCA) using the RunPCA function in the Seurat package was next performed. Then, the RunUMAP function was ran with default parameters except for dim=1:30 and the FindClusters function with a resolution of 0.5 for FIG. 2b and 0.15 for FIG. 3k in the Seurat package. […]

human Axioloids [2] = test: Axioloid morphogenesis during Matrigel embedding phase (brightfield live imaging, length, segment and somite quantification); type: cell-based
Method: Human iPS cells were seeded on iMatrix-511 silk (Nippi) coated dishes at a density of 1.3×10^4 cells/well into 6 well plates 5 days prior to Axioloid induction and used at 60% confluency. All subsequent induction steps were performed in AK02N (Reprocell) medium without component C (AK02N-C). Initially, hiPSCs were pulsed with a strong mesoderm and primitive streak fate inducing combination of bFGF (20 ng ml-1) and WNT agonist CHIR99021 (5 μM) for 24 h. CHIR99021 concentration may need to be adjusted depending on the used iPSC line, but remains usually in the range of 3-5 μM. 24 h after the initial pulse, cells were dissociated with Accutase (Thermo Fisher Scientific) and cultured for 24 h in 96-well U-bottom low attachment plates (Sumilon) at 500 cells/well in 50 μl of AK02N—C based aggregation medium supplemented with CHIR99021 (5 μM), basic FGF (20 ng ml^1), TGFβ inhibitor SB431542 (10 μM) and ROCK inhibitor Y27632 (10 μM). 24 h after aggregation, 150 μl of AK02N-C medium was added into each well and exchanged again after 24 h with 150 μl of fresh AK02N-C medium. 48 h after aggregation Axioloids were transferred one-by-one into BSA-treated 96-well flat-bottom low attachment plates (Watson) and embedded into 80 μl of AK02N-C medium containing 10% growth factor-reduced Matrigel (Corning) and cultured further at 37° C. and 5% CO2 for 24 to 48 h. Depending on the experimental setup Retinoic Acid signaling molecules, i.e. Retinoic Acid (RA) (100 nM), Retinol (ROL) (10 μM) or all trans-Retinal (RAL) (1 μM) were added to the MG containing medium throughout the embedding phase. Small molecule inhibitors of FGF (PD173074 (250 nM)), WNT (XAV939 (2 μM)), RA (BMS493 (2.5 μM)) and Notch (DAPT (25 μM)) signaling were also added during the embedding phase and their effects on Axioloids assessed accordingly. For details of the used recombinant human proteins, small molecule agonists and inhibitors, please see Supplementary Table 1.
Human Axioloids were transferred into 1% BSA (Nacalai) treated 96 well flat-bottom low attachment plates (Watson) with one Axioloid per well in 80 μl of AKO2-N—C based embedding medium (+/−MG, +/−RA, RAL or ROL, +/−small molecule modulators of signaling pathways) and were cultured in a stage top incubator (Tokai Hit) which was set to 37° C. and 5% CO2. Brightfield live-cell imaging was performed with an inverted Ti2 microscope system (Nikon) using PlanApo λ 10× objective, with the microscope running in autofocus mode, focusing at 10 μm intervals over a total range of 190 μm. Images were taken every 3 minutes and processed with Fiji.
Periodicity of segmentation was quantified from brightfield live-cell imaging data obtained with an inverted Ti2 microscope system (Nikon) using PlanApo λ 10× objective. […]
Quantification of length or intensity based on imaging data was performed using Fiji^57. Rostrocaudal length of formed segments was quantified from a center plane in z-stack images of Phalloidin-stained Axioloids. The longitudinal axes of Axioloids were measured on bright field images using Segmented Line tool. For quantifying fluorescent intensity of HCR or IHC staining, first, maximum intensity z projection images were created from multi-channel z-stack confocal images, then intensity of each channel was quantified along the longitudinal axis of Axioloids by Segmented Line tool, with a line width which corresponds to approximately 80% of the lateral length of Axioloids. […]

[3] = test system: segmentation clock gene HES7; test: HES7:Luciferase reporter oscillation of the segmentation clock in Axioloids; type: cell-based, human; details: RA, RAL or ROL, with or without MG
Method: Bioluminescence live-cell imaging of HES7-reporter (201B7Luc) iPSC-derived human Axioloids (201B7Luc) was performed and signal was quantified as previously described^55,56 Briefly, one day before imaging glass-bottom 96-well plates (Iwaki) were coated with 50 μl of 1.5% PVA (Nacalai), the PVA solution was hereby aspirated and the plates dried on top of a clean bench overnight at room temperature. Prior to imaging, Axioloids were set onto coated glass-bottom 96-well plates with 80 μl of AK02N-C medium containing […] D-Luciferin and 10% Matrigel. Small molecule agonists and antagonists of signaling pathways were added according to the experimental setup. Bioluminescence signals of Axioloids induced from the HES7-reporter cell line were recorded on IX83 (Olympus) equipped with iXon EMCCD camera (Andor) cultured in a stage top incubator (Tokai Hit). […] Kymograph was generated by averaging luminescence intensity values along the lateral axis of Axioloids and resulted values were aligned in temporal order.
Periodicity of HES7 oscillation was quantified from time-series luminescence intensity data obtained from either live imaging or Kronos HT (Atto) measurements using HES7 reporter-derived Axioloids. […] Oscillations were measured for 48 hours and each well was measured for 10 seconds with 8 min intervals. […] Peak-to-peak period was then quantified on each n-th oscillation.

SMILES: CC1=C(/C=C/C(C)=C/C=C/C(C)=C/C(=O)O)C(C)(C)CCC1 [RA, Retinoic Acid]
- segregation of SM and TB clusters (human Axioloids [1]; MG with vs without RA or RAL, 96 h and 120 h): clear segregation of the SM and TB clusters
- expression of TCF15, MEOX1, PAX3, PBX1, ZIC3, NR2F1, MEIS2 (human Axioloids [1]; MG-embedded, exposed to RAL/RA): up-regulated
- expression of RBP1, DHRS3, CYP26 A1, CRABP2 (human Axioloids [1]; TB and SM): upregulated
- MG-associated DEGs in SM (EMT genes, SFRP1, DKK1, FST, ID2, TFC15, PAX3) (human Axioloids [1]; addition of RA or RAL to MG): attenuated
- formation of fully epithelialized somites (human Axioloids [2]; MG alone or RA alone): could not achieve
- symmetry and bilaterality of somites (human Axioloids [2]; MG and RA / retinoid treated): single axis of sequentially forming epithelial somites with single central somitocoels
- formation of fully epithelialized somites (human Axioloids [2]; MG+RA): robustly rise to sequentially forming fully epithelialized somites with proper apical-basal polarity and central somitocoels
- stability and epithelialization of forming segments (human Axioloids [2]; added during MG embedding phase 72 h-120 h (RA 100 nM, ROL 10 μM, RAL 1 μM), 96 h and 120 h): dramatic improvement of the stability and epithelialization of forming segments
- overall morphology, total length, periodicity of segment formation, number of segments within 48 h post-embedding (human Axioloids [2]; addition of RA to MG-embedded Axioloids): did not change
- oscillatory activity including periodicity of HES7 [3]: largely no effect
